# Some peptides are written in HELM: one residue between dots, names in brackets for other building blocks, links after the first $.
# Assay: peptide made by a vendor
# Conditions: whole synthesis, analytical RP-HPLC
substance,measurement,value
PEPTIDE1{H.A.V.R.N.G.R.R.G.D.G.G.A.V.P.I.A.Q.K}$$$$V2.0,final HPLC purity,≥95%
same,final purity (method not given),99.5%
